Measurements as given in patent publication US20240002521A1.
Positions count from the first letter of the chain named. These are yes or no findings as the source states them, for the method shown. Some binding calls cover weakened binding; strength is not graded here.

The chains behind the UniProt entries cited, without tags or fusion partners. Where a name states a change or a piece, a line headed by the entry shows the natural chain unless it says otherwise.
UniProt P01589: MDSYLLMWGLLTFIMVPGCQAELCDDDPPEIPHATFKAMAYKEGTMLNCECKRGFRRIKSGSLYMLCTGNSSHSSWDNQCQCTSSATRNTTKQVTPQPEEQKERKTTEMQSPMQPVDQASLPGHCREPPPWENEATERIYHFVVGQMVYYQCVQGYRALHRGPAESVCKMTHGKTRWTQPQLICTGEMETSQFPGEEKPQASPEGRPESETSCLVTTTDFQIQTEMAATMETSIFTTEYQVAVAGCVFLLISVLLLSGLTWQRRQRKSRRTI

B1: MAB02 (antibody, V domains shown)
VH: QVQLVESGGGVVQPGRSLRLSCAASGFTFSNHAMAWVRQAPKKGLEWVAYISYDGDNTYYRDSVKGRFTISRDNAQSTLYLQMNSLRAEDTAVYYCTTGGNSGYDWGQGTLVTVSS
VL: DIQMTQSPSSLSASVGDRVTITCRASQNVNKFLNWYQQKPGKAPRRLIYGTNSLQSGVPSRFSGSGSGTDYTLTISSLQPEDFATYYCQQYTSWPWTFGQGTKLEIK
B2: MAB18 (antibody, V domains shown)
VH: B1 VH with N31S, K42G, R61A, A75S, Q76K, S77N
VL: B1 VL
B3: MAB17 (antibody, V domains shown)
VH: B1 VH with N31S, K42G, R61A, A75S, Q76K, S77N
VL: B1 VL with R24K, A25G, P40L, K42E, S56T
B4: MAB09 (antibody, V domains shown)
VH: B1 VH with K42G, R61A, Q76K
VL: B1 VL with R24K, A25G, P40L, K42E, S56T
B5: MAB10 (antibody, V domains shown)
VH: B1 VH with K42G, R61A, Q76K
VL: B1 VL

What follows are binders tested against human CD25 (Interleukin-2 receptor alpha chain) (human) (UniProt P01589) (assay: Flow cytometry on CD25 positive SU-DHL1 cells, antibody at 10 ug/ml, APC goat anti-human IgG detection).

binding, binds:
B1, B2, B3, B4, B5
